# Source: the supplement of paper PMC4604168 (melanoma cell lines)
# The other results are listed elsewhere or left out. Many values rest on one well or one pass, so single values are uncertain.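 Cells were imaged in 1,536-well plates, and nuclei stained with an antibody against cleaved PARP were counted against all DNA-stained nuclei to give the apoptosis fraction. Screening doses were chosen to leave most cells alive, and resting and induced cleaved-PARP levels differ strongly between cell lines.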
# Tested on: CBRC008 (line from a melanoma biopsy)
# Assay: cleaved PARP positive nuclei fraction relative to DMSO control; melanoma cells; higher = more apoptosis
# Conditions: library dose: low library concentration; 72 h
row,Structure (SMILES),cleaved PARP positive nuclei fraction [%]
1,"Cn1cc(C2=C(c3cn(C4CCN(Cc5ccccn5)CC4)c4ccccc34)C(=O)NC2=O)c2ccccc21 [Enzastaurin] + O=C(O)[C@@H]1[O][Sb](=[O])([O][Sb]2(=[O])[O][C@H]([C@H](O)CO)[C@H](O)[C@H](C(=O)O)[O]2)[O][C@H]([C@H](O)CO)[C@@H]1O [stibogluconate] (first compound 0.8 µM, partner dose 2 µM)",40.6
2,"C[C@]12O[C@H](C[C@]1(O)CO)n1c3ccccc3c3c4c(c5c6ccccc6n2c5c31)CNC4=O [Lestaurtinib] + CNC(=O)c1cc(Oc2ccc(NC(=O)Nc3ccc(Cl)c(C(F)(F)F)c3)cc2)ccn1 [sorafenib] (first compound 0.004 µM, partner dose 0.4 µM)",110
3,"CC1(C)CCC(c2ccc(Cl)cc2)=C(CN2CCN(c3ccc(C(=O)NS(=O)(=O)c4ccc(N[C@H](CCN5CCOCC5)CSc5ccccc5)c(S(=O)(=O)C(F)(F)F)c4)cc3)CC2)C1 + Cn1cc(C2=C(c3cn(C4CCN(Cc5ccccn5)CC4)c4ccccc34)C(=O)NC2=O)c2ccccc21 [Enzastaurin] (first compound 0.4 µM, partner dose 0.8 µM)",531
4,"Cn1cc(C2=C(c3cn(C4CCN(Cc5ccccn5)CC4)c4ccccc34)C(=O)NC2=O)c2ccccc21 [Enzastaurin] + O=C(O)c1ccc2c(c1)nc(Nc1cccc(Cl)c1)c1ccncc12 [CX4945] (first compound 0.8 µM, partner dose 0.4 µM)",87.6
5,"N.N.[Cl][Pt][Cl] [cisplatin] + CNC(=O)c1cc(Oc2ccc(NC(=O)Nc3ccc(Cl)c(C(F)(F)F)c3)cc2)ccn1 [sorafenib] (first compound 1.6 µM, partner dose 0.4 µM)",142
6,"N.N.[Cl][Pt][Cl] [cisplatin] + CS(=O)(=O)CCNCc1ccc(-c2ccc3ncnc(Nc4ccc(OCc5cccc(F)c5)c(Cl)c4)c3c2)o1 [lapatinib] (first compound 1.6 µM, partner dose 0.8 µM)",96.6
7,"C[C@]12O[C@H](C[C@]1(O)CO)n1c3ccccc3c3c4c(c5c6ccccc6n2c5c31)CNC4=O [Lestaurtinib] + Cc1cc(Nc2cc(N3CCN(C)CC3)nc(/C=C/c3ccccc3)n2)n[nH]1 [ENMD2076] (first compound 0.004 µM, partner dose 0.04 µM)",122
8,"C[As](C)SC[C@H](NC(=O)CC[C@H](N)C(=O)O)C(=O)NCC(=O)O [Darinaparsin] + Cn1nnc2c(C(N)=O)ncn2c1=O [temozolomide] (first compound 0.4 µM, partner dose 2 µM)",89.9
9,"CCCCCCCCCCCCCCCCCCOP(=O)([O-])OC1CC[N+](C)(C)CC1 [Perifosine] + Cn1cc(C2=C(c3cn(C4CCN(Cc5ccccn5)CC4)c4ccccc34)C(=O)NC2=O)c2ccccc21 [Enzastaurin] (first compound 0.4 µM, partner dose 0.8 µM)",61.4
10,"C=CCNC1=C2C[C@@H](C)C[C@H](OC)[C@H](O)[C@@H](C)/C=C(\C)[C@H](OC(N)=O)[C@@H](OC)/C=C\C=C(/C)C(=O)NC(=CC1=O)C2=O [Tanespimycin] + C[As](C)SC[C@H](NC(=O)CC[C@H](N)C(=O)O)C(=O)NCC(=O)O [Darinaparsin] (first compound 0.002 µM, partner dose 0.4 µM)",169
11,"Cn1sc(=O)n(Cc2ccccc2)c1=O + C[As](C)SC[C@H](NC(=O)CC[C@H](N)C(=O)O)C(=O)NCC(=O)O [Darinaparsin] (first compound 0.4 µM, partner dose 0.4 µM)",115
12,"CC1(C)CCC(c2ccc(Cl)cc2)=C(CN2CCN(c3ccc(C(=O)NS(=O)(=O)c4ccc(N[C@H](CCN5CCOCC5)CSc5ccccc5)c(S(=O)(=O)C(F)(F)F)c4)cc3)CC2)C1 + C[As](C)SC[C@H](NC(=O)CC[C@H](N)C(=O)O)C(=O)NCC(=O)O [Darinaparsin] (first compound 0.4 µM, partner dose 0.4 µM)",942
13,"Cc1cc(Nc2cc(N3CCN(C)CC3)nc(Sc3ccc(NC(=O)C4CC4)cc3)n2)n[nH]1 [Tozasertib] + C[As](C)SC[C@H](NC(=O)CC[C@H](N)C(=O)O)C(=O)NCC(=O)O [Darinaparsin] (first compound 0.006 µM, partner dose 0.4 µM)",60.9
